Data from US5756301A, “Endogenous taxol-like substance in human serum, monoclonal antibodies directed thereto and methods of assaying therefor” (The Trustees of Columbia University in the City of New York, priority 1993, dated 1998).
Several values for one entry are separate records, joined by “and”; a condition that tells them apart may be missing. Equal values may be shown once.

Columns and labels:
[1] = test system: rabbit antitaxol antiserum; assay: Measurement of taxol levels in human serum by RIA using rabbit antitaxol antiserum; settings: duplicate
69E4A8E = assay: Measurement of taxol levels in human serum by ELISA using 69E4A8E; parameters: species or system mouse; settings: for Taxol concentration found: human serum, three duplicate experiments
rabbit antiserum = settings: plant extracts, ELISA, Jaziri et al.; cited from earlier work

Structure (SMILES): CC(=O)O[C@H]1C(=O)[C@@]2(C)[C@H]([C@H](OC(=O)c3ccccc3)[C@]3(O)C[C@H](OC(=O)[C@H](O)[C@@H](NC(=O)c4ccccc4)c4ccccc4)C(C)=C1C3(C)C)[C@]1(OC(C)=O)CO[C@@H]1C[C@@H]2O [Taxol]
- Taxol concentration found ([1]; actual taxol 5 nM): 5.67 ± 0.64 nM
- Taxol concentration found ([1]; actual taxol 10 nM): 11.3 ± 0.5 nM
- Taxol concentration found ([1]; actual taxol 50 nM): 32.7 ± 0.3 nM
- Taxol concentration found ([1]; actual taxol 500 nM): 476 ± 4 nM
- Taxol concentration found ([1]; actual taxol 5 uM): 5870 ± 1000 nM
- Lower limit of measurements (69E4A8E; human serum diluted 1:5, 69E4A8E): about 50 nM and ~42 ng/ml
- Taxol concentration found (69E4A8E; actual taxol 5 uM): 3.61 ± 0.35 µM
- Taxol concentration found (69E4A8E; actual taxol printed 100 nM): 0.6 ± 0.144 µM
- Lowest amount detected (rabbit antiserum): 23.5 nM and 20 ng/ml
